# Results of single-concentration screens

Values are the deposited “Percent Effect”, in %.
The record does not define 0% and 100%; most values in the screen are far below 50% and negative numbers occur (in some assays of this library far below -100).
Compounds were drawn at random from those tested, without regard to their results.

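Growth of Mycobacterium tuberculosis over 3 days (7H9 medium with glucose and tyloxapol); the read-out is not stated. Concentration: 500 µM. Higher reads as more growth inhibition (inferred: compounds with an IC50 in retests scored well above the rest). About 18,000 compounds were tested under these conditions; 7.9% (about 1,400) showed 50% or more at least once.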

Compound	percent effect
CC(C)(C)C(O)CNC(=O)Nc1nncs1 (configuration not stated)	-5.296
COCCNC1CCCc2cccnc21 (configuration not stated)	3.563
N#CCc1ccc(CN)cc1	78.68
CC(C)N(C)C(=O)CN1CC(Oc2ccc(F)cc2)C1	14.22
CNC(=O)c1cc(S(=O)(=O)N2CCCC(C)C2)cs1 (configuration not stated)	19.98
NC(=O)C1(CNc2ncc(Br)cn2)CCOCC1	26.53
O=C(CN1CCCC1)NCCc1cccs1	30.82
CCS(=O)(=O)CCN1CC(Oc2ccc(C#N)cc2)C1	10.72
O=C(Nc1nncs1)N1CCN(Cc2ccsc2)CC1	20.34
NCc1ccc2c(c1)COC2	2.811
Cc1nc2ccc(C(=O)N3CC(O)C3)cc2nc1C	2.882
Cc1c(Br)cccc1S(=O)(=O)NCCN	64.6
NC(=O)C1=NOC(CNCc2ccccc2Cl)C1 (configuration not stated)	2.415
CNCc1c(C)cc(C)nc1OC	5.855
CCC(C)(NCc1cc(F)ccc1F)C(N)=O (configuration not stated)	-6.019
OC(CN1CCOCC12CCCC2)C(F)(F)F (configuration not stated)	3.301
CNC(=O)CN(C)C(=O)C(C)OCc1ccccc1 (configuration not stated)	4.86
CC(NS(C)(=O)=O)C(=O)NC1Cc2ccccc2C1 (configuration not stated)	21.89
CCCNC(=O)N1CCN(CCC)CC1	22.33
Cc1cc(CN(C)CCC(=O)Nc2cccnc2)no1	8.613
O=C1CCOCCN1Cc1noc(-c2ccccc2)n1	32.69
CSCCC(NC(N)=O)C(=O)NCCc1ccccc1 (configuration not stated)	5.047
CCN(CC)CCNC(=O)c1ccc(S(C)(=O)=O)cc1	1.617
CC(NCC(=O)N1CCNC1=O)c1ccc(Cl)s1 (configuration not stated)	11.74
CNS(=O)(=O)CCCN1CCOCC1c1cccn1C (configuration not stated)	-3.893
CC(C)CC(=O)NCC(C)NC(=O)CC(C)C (configuration not stated)	1.603
Cc1ccccc1NC(=O)N1CCN(CC(N)=O)CC1	3.535
CCc1ccc(CNc2ccc(CO)cn2)cc1	70.54
NCCCC1(O)CCC1	4.486
CCN(CC)CCCN1CCOC2(CCOCC2)C1	0.6609
NC1CCCN(c2cccnc2)C1=O (configuration not stated)	-1.892
O=C(c1cnccn1)N1CCCCC1c1nccs1 (configuration not stated)	4.375
CN(C)CCCNC(=O)COc1ccccc1	-5.837
COc1cc(CNC(=O)NCC(F)(F)F)ccn1	26.08
CCNC(=O)C(C)(C)CNC(=O)Nc1cc(C)ccn1	26.46
O=C(NC1CCNCC1)c1cc2ccccc2o1	2.039
CC(C)CC1CCN(C(=O)CCn2cnnn2)C1 (configuration not stated)	70.8
CC(C)(C)OC(=O)N1CCC(n2ccc(N)n2)C1 (configuration not stated)	9.841
O=C(NCCO)Nc1ccnn1Cc1cccc(Br)c1	19.98
CN(C(=O)CSc1nnc2ccccn12)C1=CCCC1	4.743
CN(Cc1cccnc1)C(=O)CN	7.197
CC(=O)NC1(c2nc(C)cs2)CCNC1 (configuration not stated)	-5.06
c1cc(-c2nnco2)ccn1	-1.223
O=S1(=O)CCCN1CCNc1ncc(Cl)cc1Cl	61.54
COc1ccc(CNC(=O)C2CCCN2)cc1 (configuration not stated)	19.51
COCC(C)(C)C(=O)NCc1cc(F)ccc1C	13.83
COc1cc(C#N)ccc1S(=O)(=O)N1CCCC1CN (configuration not stated)	29.07
CN(C)C(=O)C1(N)CC1	-7.667
c1nnc(C2CC2)n1C1CCNCC1	1.87
Cc1cc(C(=O)N2CCc3sccc3C2)n(C)n1	4.755
Cc1cnn(C(=O)c2cc(C(F)(F)F)n(C)n2)c1	-4.396
N#CCCCn1ccccc1=O	-1.968
Cc1nc(-c2c[nH]c(C(=O)N3CCCC3)c2)cs1	93.16
CC(C)N1CCC(CN2CCN(c3nc[nH]n3)CC2)C1 (configuration not stated)	7.978
CCCN(CC1CCCO1)C(=O)c1ncc[nH]1 (configuration not stated)	17.53
CCOC(=O)CCN(C)CCNC	-1.095
CCSCC(=O)NC(C)c1cn2ccsc2n1 (configuration not stated)	21.7
NCCc1ccc(F)cn1	5.234
CCNC(=O)CN(CC)c1cccc(CO)c1	3.738
Cn1cnnc1CNC(=O)c1sccc1OC(F)F	3.002
CC(O)C(C)(C)NC(=O)c1cn2cccnc2n1 (configuration not stated)	-5.08
CN(C(=O)c1ccccc1O)C1CCS(=O)(=O)C1 (configuration not stated)	0.5406
CCCC(=O)NC1CCN(CC)CC1	7.587
COCC(=O)NCC1(N2CCOCC2)CCCCC1	2.614
Nc1cnccc1N1CCCC1	20.31
Cc1ccccc1Oc1ccnc(CN)c1	-6.83
Fc1cccnc1OC1CCCNC1 (configuration not stated)	4.078
CC1(C)CCC(CO)O1 (configuration not stated)	10.61
COc1ncccc1C(=O)N1CCc2ccccc2C1	38.31
CCOC(=O)c1ccc(S(=O)(=O)N[C@@H](C)CO)cc1	4.922
Nc1ncc2n1CCC2	24.49
CO[C@H]1CNCC1NC(=O)c1scnc1C (some centres not stated)	-13.9
CCC(C)(C#N)NC(=O)Cc1cccs1 (configuration not stated)	2.728
Cc1cc(NC(=O)C2CCN(CC(C)C)CC2)no1	-7.091

For reference, 7 entries once more:

{"compound": "Cc1nc2ccc(C(=O)N3CC(O)C3)cc2nc1C", "percent effect": 2.882}
{"compound": "O=C(Nc1nncs1)N1CCN(Cc2ccsc2)CC1", "percent effect": 20.34}
{"compound": "CNCc1c(C)cc(C)nc1OC", "percent effect": 5.855}
{"compound": "CN(C)C(=O)C1(N)CC1", "percent effect": -7.667}
{"compound": "CC(C)(C)C(O)CNC(=O)Nc1nncs1", "stereo": "configuration not stated", "percent effect": -5.296}
{"compound": "CO[C@H]1CNCC1NC(=O)c1scnc1C", "stereo": "some centres not stated", "percent effect": -13.9}
{"compound": "CC(NS(C)(=O)=O)C(=O)NC1Cc2ccccc2C1", "stereo": "configuration not stated", "percent effect": 21.89}

From ChEMBL document CHEMBL3988442, “University of Dundee, Small-Polar-MMV Screening Library” (2021).